Binding data for ten molecules are collected here from PMC4307257.

The chains behind the UniProt entries cited, without tags or fusion partners. Residues count along the entry.
UniProt P05067, residues 672-713: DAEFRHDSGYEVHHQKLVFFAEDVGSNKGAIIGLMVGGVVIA

Results are given in words; binding and its absence hold for the method and conditions named. In cells and extracts the contact can be indirect. A yes stands for co-enrichment or nearness to the bait. Other partners may have been found. Where a sequence is shown, tags or fusion partners need not be part of it.

The test concerns the target human amyloid-β protein fragment (1–42) (human) (UniProt P05067). Briefly: affinity purification with mass spectrometry; amyloid-β 1–42 immobilized on Affi-Gel 10; cleared 3% Triton X-100 lysate of rat brain homogenate (control; also after 70 µM H2O2, 0.1 mM isatin or both, 37 °C, 30 min), overnight at 4 °C, 50 mM potassium phosphate pH 7.4; elution with 1 M glycine pH 2.8, 150 mM NaCl; LC-MS/MS; ligand-free Affi-Gel 10 as control; only the target purified.

B1: Superoxide dismutase [Mn] (protein, UniProt P07895 25-222)
chain: KHSLPDLPYDYGALEPHINAQIMQLHHSKHHATYVNNLNVTEEKYHEALAKGDVTTQVALQPALKFNGGGHINHSIFWTNLSPKGGGEPKGELLEAIKRDFGSFEKFKEKLTAVSVGVQGSGWGWLGFNKEQGRLQIAACSNQDPLQGTTGLIPLLGIDVWEHAYYLQYKNVRPDYLKAIWNVINWENVSQRYIVCKK
On to B1, for which the binding entry is on record as “binds”.

B2: Fructose-bisphosphate aldolase A (protein, UniProt P05065 1-364)
chain: MPHPYPALTPEQKKELADIAHRIVAPGKGILAADESTGSIAKRLQSIGTENTEENRRFYRQLLLTADDRVNPCIGGVILFHETLYQKADDGRPFPQVIKSKGGVVGIKVDKGVVPLAGTNGETTTQGLDGLSERCAQYKKDGADFAKWRCVLKIGEHTPSSLAIMENANVLARYASICQQNGIVPIVEPEILPDGDHDLKRCQYVTEKVLAAVYKALSDHHVYLEGTLLKPNMVTPGHACTQKFSNEEIAMATVTALRRTVPPAVPGVTFLSGGQSEEEASINLNAINKCPLLKPWALTFSYGRALQASALKAWGGKKENLKAAQEEYIKRALANSLACQGKYTPSGQSGAAASESLFISNHAY
For the molecule B2, the binding entry was “binds”.

B3: Peroxiredoxin-2 (protein, UniProt P35704 1-198)
chain: MASGNAHIGKPAPDFTGTAVVDGAFKEIKLSDYRGKYVVLFFYPLDFTFVCPTEIIAFSDHAEDFRKLGCEVLGVSVDSQFTHLAWINTPRKEGGLGPLNIPLLADVTKSLSQNYGVLKNDEGIAYRGLFIIDAKGVLRQITVNDLPVGRSVDEALRLVQAFQYTDEHGEVCPAGWKPGSDTIKPNVDDSKEYFSKHN
On to B3, for which the binding entry was “binds”.

B4: Glutathione S-transferase α-2 (protein, UniProt P04903 1-222)
chain: MSGKPVLHYFNARGRMECIRWLLAAAGVEFEEKLIQSPEDLEKLKKDGNLMFDQVPMVEIDGMKLAQTRAILNYIATKYDLYGKDMKERALIDMYSEGILDLTEMIIQLVICPPDQREAKTALAKDRTKNRYLPAFEKVLKSHGQDYLVGNRLTRVDIHLLELLLYVEEFDASLLTSFPLLKAFKSRISSLPNVKKFLQPGSQRKPAMDAKQIEEARKVFKF
Take B4: the binding result is “binds”.

B5: Phosphoglucomutase-1 (protein, UniProt P38652 1-562)
chain: MVKIVTVKTQAYPDQKPGTSGLRKRVKVFQGNANYAENFIQSIVSTVEPALRQEATLVVGGDGRFYMTEAIQLIVRIAAANGIGRLVIGQNGILSTPAVSCIIRKIKAIGGIILTASHNPGGPNGDFGIKFNISNGGPAPEAITDKIFQISKTIEEYAICPDLKVDLGVLGKQQFDLENKFKPFTVEIVDSVEAYATMLRNIFDFNALKELLSGPNRLKIRIDAMHGVVGPYVKKILCEELGAPANSAVNCVPLEDFGGHHPDPNLTYAADLVETMKSGEHDFGAAFDGDGDRNMILGKHGFFVNPSDSVAVIAANIFSIPYFQQTGVRGFARSMPTSGALDRVANATKIASYETPTGWKFFGNLMDASKLSLCGEESFGTGSDHIREKDGLWAVLAWLSILATRKQRVEDILKDHWQKFGRNFFTRYDYEEVEAEGANKMMKDLEALMLDRSFVGKQFSANDKVYTVEKADNFEYSDPVDGSISKNQGLRLIFADGSRIIFRLSGTGSAGATIRLYIDSYEKDAAKINQDPQVMLAPLISIALKVSQLQERTGRTAPTVIT
As to B5, the binding result is given as “binds”.

B6: Carbamoyl-phosphate synthase [ammonia], mitochondrial (protein, UniProt P07756 39-1500)
chain: LSVKAQTAHIVLEDGTKMKGYSFGHPSSVAGEVVFNTGLGGYSEALTDPAYKGQILTMANPIIGNGGAPDTTARDELGLNKYMESDGIKVAGLLVLNYSHDYNHWLATKSLGQWLQEEKVPAIYGVDTRMLTKIIRDKGTMLGKIEFEGQSVDFVDPNKQNLIAEVSTKDVKVFGKGNPTKVVAVDCGIKNNVIRLLVKRGAEVHLVPWNHDFTQMDYDGLLIAGGPGNPALAQPLIQNVKKILESDRKEPLFGISTGNIITGLAAGAKSYKMSMANRGQNQPVLNITNRQAFITAQNHGYALDNTLPAGWKPLFVNVNDQTNEGIMHESKPFFAVQFHPEVSPGPTDTEYLFDSFFSLIKKGKGTTITSVLPKPALVASRVEVSKVLILGSGGLSIGQAGEFDYSGSQAVKAMKEENVKTVLMNPNIASVQTNEVGLKQADAVYFLPITPQFVTEVIKAERPDGLILGMGGQTALNCGVELFKRGVLKEYGVKVLGTSVESIMATEDRQLFSDKLNEINEKIAPSFAVESMEDALKAADTIGYPVMIRSAYALGGLGSGICPNKETLMDLGTKAFAMTNQILVERSVTGWKEIEYEVVRDADDNCVTVCNMENVDAMGVHTGDSVVVAPAQTLSNAEFQMLRRTSINVVRHLGIVGECNIQFALHPTSMEYCIIEVNARLSRSSALASKATGYPLAFIAAKIALGIPLPEIKNVVSGKTSACFEPSLDYMVTKIPRWDLDRFHGTSSRIGSSMKSVGEVMAIGRTFEESFQKALRMCHPSVDGFTPRLPMNKEWPANLDLRKELSEPSSTRIYAIAKALENNMSLDEIVKLTSIDKWFLYKMRDILNMDKTLKGLNSESVTEETLRQAKEIGFSDKQISKCLGLTEAQTRELRLKKNIHPWVKQIDTLAAEYPSVTNYLYVTYNGQEHDIKFDEHGIMVLGCGPYHIGSSVEFDWCAVSSIRTLRQLGKKTVVVNCNPETVSTDFDECDKLYFEELSLERILDIYHQEACNGCIISVGGQIPNNLAVPLYKNGVKIMGTSPLQIDRAEDRSIFSAVLDELKVAQAPWKAVNTLNEALEFANSVGYPCLLRPSYVLSGSAMNVVFSEDEMKRFLEEATRVSQEHPVVLTKFIEGAREVEMDAVGKEGRVISHAISEHVEDAGVHSGDATLMLPTQTISQGAIEKVKDATRKIAKAFAISGPFNVQFLVKGNDVLVIECNLRASRSFPFVSKTLGVDFIDVATKVMIGESVDEKHLPTLEQPIIPSDYVAIKAPMFSWPRLRDADPILRCEMASTGEVACFGEGIHTAFLKAMLSTGFKIPQKGILIGIQQSFRPRFLGVAEQLHNEGFKLFATEATSDWLNANNVPATPVAWPSQEGQNPSLSSIRKLIRDGSIDLVINLPNNNTKFVHDNYVIRRTAVDSGIALLTNFQVTKLFAEAVQKARTVDSKSLFHYRQYSAGKAA
B6: the binding result was “binds”.

B7: Phosphatidylethanolamine-binding protein 1 (protein, UniProt P31044 1-187)
chain: MAADISQWAGPLSLQEVDEPPQHALRVDYGGVTVDELGKVLTPTQVMNRPSSISWDGLDPGKLYTLVLTDPDAPSRKDPKFREWHHFLVVNMKGNDISSGTVLSEYVGSGPPKDTGLHRYVWLVYEQEQPLNCDEPILSNKSGDNRGKFKVESFRKKYHLGAPVAGTCFQAEWDDSVPKLHDQLAGK
As for B7, the binding result is reported as “binds”.

B8: Fructose-bisphosphate aldolase B (protein, UniProt P00884 1-364)
chain: MAHRFPALTSEQKKELSEIAQRIVANGKGILAADESVGTMGNRLQRIKVENTEENRRQFRELLFSVDNSISQSIGGVILFHETLYQKDSQGKLFRNILKEKGIVVGIKLDQGGAPLAGTNKETTIQGLDGLSERCAQYKKDGVDFGKWRAVLRISDQCPSSLAIQENANALARYASICQQNGLVPIVEPEVLPDGDHDLEHCQYVSEKVLAAVYKALNDHHVYLEGTLLKPNMLTAGHACTKKYTPEQVAMATVTALHRTVPAAVPSICFLSGGMSEEDATLNLNAIYRCPLPRPWKLSFSYGRALQASALAAWGGKAANKKATQEAFMKRAVANCQAAQGQYVHTGSSGAASTQSLFTASYTY
Regarding B8, the binding result was “binds”.

B9: Peroxiredoxin-1 (protein, UniProt Q63716 1-199)
chain: MSSGNAKIGHPAPSFKATAVMPDGQFKDISLSDYKGKYVVFFFYPLDFTFVCPTEIIAFSDRAEEFKKLNCQVIGASVDSHFCHLAWINTPKKQGGLGPMNIPLVSDPKRTIAQDYGVLKADEGISFRGLFIIDDKGILRQITINDLPVGRSVDEILRLVQAFQFTDKHGEVCPAGWKPGSDTIKPDVNKSKEYFSKQK
As to B9, the binding entry is given as “binds”.

B10: Betaine-homocysteine S-methyltransferase 1 (protein, UniProt O09171 1-407)
chain: MAPIAGKKAKRGILERLNAGEVVIGDGGFVFALEKRGYVKAGPWTPEAAVEHPEAVRQLHREFLRAGSNVMQTFTFYASEDKLENRGNYVAEKISGQKVNEAACDIARQVADEGDALVAGGVSQTPSYLSCKSETEVKKIFHQQLEVFMKKNVDFLIAEYFEHVEEAVWAVEALKTSGKPIAATMCIGPEGDLHGVSPGECAVRLVKAGAAIVGVNCHFDPSTSLQTIKLMKEGLEAARLKAYLMSHALAYHTPDCGKQGFIDLPEFPFGLEPRVATRWDIQKYAREAYNLGVRYIGGCCGFEPYHIRAIAEELAPERGFLPPASEKHGSWGSGLDMHTKPWIRARARKEYWQNLRIASGRPYNPSMSKPDAWGVTKGAAELMQQKEATTEQQLRALFEKQKFKSAQ
In the case of B10, the binding result is given as “binds”.
